Assay results taken from paper PMC3820547.
Results are given in words; binding and its absence hold for the method and conditions named. In cells and extracts the contact can be indirect. These calls come from enrichment with a bait or labelling near it, and not all partners need be listed. For some of these results: No binding means not detected with the bait. For some of these results: Sequences can lack the tags named with a protein.

By UniProt entry, the sequences of proteins in these tests, tags left out. Where a name states a change or a piece, a line headed by the entry shows the natural chain unless it says otherwise.
UniProt Q9UYX9: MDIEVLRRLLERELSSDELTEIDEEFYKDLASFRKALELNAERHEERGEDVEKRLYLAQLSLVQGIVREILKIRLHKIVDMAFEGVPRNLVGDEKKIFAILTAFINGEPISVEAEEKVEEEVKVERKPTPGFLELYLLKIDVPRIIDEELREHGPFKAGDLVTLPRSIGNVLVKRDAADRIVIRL
UniProt Q9UYR8: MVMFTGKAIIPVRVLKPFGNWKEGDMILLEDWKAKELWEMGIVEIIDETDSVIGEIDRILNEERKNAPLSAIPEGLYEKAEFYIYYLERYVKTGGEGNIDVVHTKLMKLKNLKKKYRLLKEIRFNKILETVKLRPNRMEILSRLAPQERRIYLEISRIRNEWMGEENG
UniProt Q9V2F4: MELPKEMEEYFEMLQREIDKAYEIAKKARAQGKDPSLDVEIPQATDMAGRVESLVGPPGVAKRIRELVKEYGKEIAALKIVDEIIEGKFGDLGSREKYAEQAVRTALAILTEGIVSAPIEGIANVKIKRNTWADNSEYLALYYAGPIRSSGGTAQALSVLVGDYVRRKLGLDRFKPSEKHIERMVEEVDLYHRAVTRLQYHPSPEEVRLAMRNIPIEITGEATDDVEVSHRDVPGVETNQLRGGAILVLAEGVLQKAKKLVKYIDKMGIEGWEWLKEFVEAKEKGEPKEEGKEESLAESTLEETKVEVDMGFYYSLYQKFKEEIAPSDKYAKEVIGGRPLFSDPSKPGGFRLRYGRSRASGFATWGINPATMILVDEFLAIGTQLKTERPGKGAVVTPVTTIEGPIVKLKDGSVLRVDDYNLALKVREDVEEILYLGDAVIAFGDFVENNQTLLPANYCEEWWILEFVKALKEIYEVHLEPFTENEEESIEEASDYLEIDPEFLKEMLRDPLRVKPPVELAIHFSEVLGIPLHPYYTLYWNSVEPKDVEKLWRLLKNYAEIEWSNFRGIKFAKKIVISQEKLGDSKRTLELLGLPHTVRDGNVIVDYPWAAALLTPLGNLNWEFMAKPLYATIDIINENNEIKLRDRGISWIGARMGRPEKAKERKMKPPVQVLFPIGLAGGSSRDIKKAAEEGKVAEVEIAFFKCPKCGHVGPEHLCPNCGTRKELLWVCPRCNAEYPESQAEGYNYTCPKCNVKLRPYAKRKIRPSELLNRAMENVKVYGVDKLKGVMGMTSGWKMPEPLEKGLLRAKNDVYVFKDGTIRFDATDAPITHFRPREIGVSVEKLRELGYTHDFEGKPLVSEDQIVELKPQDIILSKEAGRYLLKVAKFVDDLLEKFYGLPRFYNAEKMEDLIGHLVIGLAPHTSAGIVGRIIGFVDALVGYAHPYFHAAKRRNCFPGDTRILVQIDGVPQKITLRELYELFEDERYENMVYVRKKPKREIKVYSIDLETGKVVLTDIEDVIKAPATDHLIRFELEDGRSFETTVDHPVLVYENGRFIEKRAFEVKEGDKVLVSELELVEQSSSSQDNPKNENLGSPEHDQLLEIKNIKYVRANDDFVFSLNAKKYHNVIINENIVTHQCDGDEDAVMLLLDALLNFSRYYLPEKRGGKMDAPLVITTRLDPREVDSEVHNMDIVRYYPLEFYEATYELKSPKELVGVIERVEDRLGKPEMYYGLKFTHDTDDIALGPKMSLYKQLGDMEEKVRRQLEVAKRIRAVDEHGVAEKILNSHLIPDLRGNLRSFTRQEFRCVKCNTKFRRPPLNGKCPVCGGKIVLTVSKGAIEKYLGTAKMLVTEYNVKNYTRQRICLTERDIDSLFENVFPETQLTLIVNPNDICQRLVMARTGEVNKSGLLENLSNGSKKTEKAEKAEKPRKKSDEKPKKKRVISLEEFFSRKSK
UniProt Q9UYR4: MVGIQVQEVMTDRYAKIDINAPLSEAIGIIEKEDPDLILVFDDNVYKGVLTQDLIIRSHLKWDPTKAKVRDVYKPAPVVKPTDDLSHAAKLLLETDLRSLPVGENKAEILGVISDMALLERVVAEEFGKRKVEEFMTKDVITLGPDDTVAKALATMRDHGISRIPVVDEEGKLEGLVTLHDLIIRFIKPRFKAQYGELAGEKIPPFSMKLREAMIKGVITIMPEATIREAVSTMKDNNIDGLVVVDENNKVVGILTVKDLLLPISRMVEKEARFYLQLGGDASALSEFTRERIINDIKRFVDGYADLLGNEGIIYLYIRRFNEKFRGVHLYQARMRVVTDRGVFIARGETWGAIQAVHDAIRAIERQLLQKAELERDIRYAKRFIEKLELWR
UniProt Q9V233: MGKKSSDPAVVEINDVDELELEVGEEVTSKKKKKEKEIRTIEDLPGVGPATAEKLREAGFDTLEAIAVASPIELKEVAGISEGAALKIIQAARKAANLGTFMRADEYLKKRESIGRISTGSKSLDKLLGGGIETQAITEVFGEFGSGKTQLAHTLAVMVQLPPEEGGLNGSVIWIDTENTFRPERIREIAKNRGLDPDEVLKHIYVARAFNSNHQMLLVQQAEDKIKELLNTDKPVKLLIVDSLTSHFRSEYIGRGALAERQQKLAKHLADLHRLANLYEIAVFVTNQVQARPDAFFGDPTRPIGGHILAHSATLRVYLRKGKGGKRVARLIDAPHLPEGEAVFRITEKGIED

What was measured:
[1] = target: T1, NucS (Q9V2E8), HIS-tagged bait (Pyrococcus abyssi) (UniProt Q9V2E8); assay: affinity purification with mass spectrometry; 10-30 ug of HIS- or GST-tagged bait immobilised on 2 mg cobalt or glutathione magnetic beads, incubated with 4 ml P. abyssi protein extract 3 h at 4°C, washed with PBS; two assays for each bait, without (nuc-) and with (nuc+) DNAse/RNAse treatment of the purified complexes; preys identified by LC-MS/MS; only the target purified
T1 sequence: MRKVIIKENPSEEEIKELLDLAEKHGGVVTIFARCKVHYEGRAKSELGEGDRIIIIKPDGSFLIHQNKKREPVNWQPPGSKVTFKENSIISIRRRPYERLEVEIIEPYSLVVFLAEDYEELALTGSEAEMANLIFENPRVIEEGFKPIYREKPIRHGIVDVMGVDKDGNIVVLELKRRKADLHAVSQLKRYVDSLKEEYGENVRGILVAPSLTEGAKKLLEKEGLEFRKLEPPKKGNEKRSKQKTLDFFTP

[2] = target: Gins 51 (Q9UYX9), HIS-tagged bait (Pyrococcus abyssi) (UniProt Q9UYX9); assay: as above
[3] = target: T2, Rec-J like exonuclease (Q9V2K8), HIS-tagged bait (Pyrococcus abyssi) (UniProt Q9V2K8); assay: condition: only after DNAse/RNAse treatment of the purified complexes (nuc+); affinity purification with mass spectrometry; as a1, the assay with nucleotide degradation (nuc+) alone: purified complexes incubated with 80/1.2 units DNAse/RNAse mix 45 min in PBS at room temperature; only the target purified
T2 sequence: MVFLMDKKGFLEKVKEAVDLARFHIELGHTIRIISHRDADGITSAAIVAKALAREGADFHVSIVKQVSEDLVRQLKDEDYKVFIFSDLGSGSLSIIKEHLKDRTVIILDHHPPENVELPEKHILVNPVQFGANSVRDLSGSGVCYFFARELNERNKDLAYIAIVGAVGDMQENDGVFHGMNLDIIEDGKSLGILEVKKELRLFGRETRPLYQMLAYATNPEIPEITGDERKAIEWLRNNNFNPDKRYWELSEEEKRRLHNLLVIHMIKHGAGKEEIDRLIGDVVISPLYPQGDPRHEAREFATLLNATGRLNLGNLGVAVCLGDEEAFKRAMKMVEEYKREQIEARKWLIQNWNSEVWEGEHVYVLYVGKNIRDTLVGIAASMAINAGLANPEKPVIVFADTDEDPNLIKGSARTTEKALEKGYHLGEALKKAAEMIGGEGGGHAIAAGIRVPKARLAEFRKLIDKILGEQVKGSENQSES

[4] = target: T2, Rec-J like exonuclease (Q9V2K8), HIS-tagged bait (Pyrococcus abyssi); assay: affinity purification with mass spectrometry; as a1, the nuclease free assay (nuc-) alone; only the target purified
[5] = target: T3, NAD-dependant protein deacetylase (Q9UZE7), HIS-tagged bait (Pyrococcus abyssi) (UniProt Q9UZE7); assay: affinity purification with mass spectrometry; 10-30 ug of HIS- or GST-tagged bait immobilised on 2 mg cobalt or glutathione magnetic beads, incubated with 4 ml P. abyssi protein extract 3 h at 4°C, washed with PBS; two assays for each bait, without (nuc-) and with (nuc+) DNAse/RNAse treatment of the purified complexes; preys identified by LC-MS/MS; only the target purified
T3 sequence: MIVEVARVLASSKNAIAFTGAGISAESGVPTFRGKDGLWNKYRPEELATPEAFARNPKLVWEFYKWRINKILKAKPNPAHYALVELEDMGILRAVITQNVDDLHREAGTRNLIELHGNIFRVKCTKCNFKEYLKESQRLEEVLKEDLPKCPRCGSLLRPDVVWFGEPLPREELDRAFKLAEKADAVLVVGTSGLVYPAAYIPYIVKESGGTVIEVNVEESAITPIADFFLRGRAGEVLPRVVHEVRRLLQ

[6] = target: T4, RadB (Q9V2F6), HIS-tagged bait (Pyrococcus abyssi) (UniProt Q9V2F6); assay: as above
T4 sequence: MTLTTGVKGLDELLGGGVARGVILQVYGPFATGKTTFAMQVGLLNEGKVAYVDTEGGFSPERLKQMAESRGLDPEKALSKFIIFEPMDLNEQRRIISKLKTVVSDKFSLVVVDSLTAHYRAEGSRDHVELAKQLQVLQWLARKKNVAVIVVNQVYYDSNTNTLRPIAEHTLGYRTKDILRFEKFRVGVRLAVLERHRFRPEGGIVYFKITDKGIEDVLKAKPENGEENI

[7] = target: Gins 23 (Q9UYR8), HIS-tagged bait (Pyrococcus abyssi) (UniProt Q9UYR8); assay: as above
[8] = target: T5, PCNA (Q9UYX8), HIS-tagged bait (Pyrococcus abyssi) (UniProt Q9UYX8); assay: as above
T5 sequence: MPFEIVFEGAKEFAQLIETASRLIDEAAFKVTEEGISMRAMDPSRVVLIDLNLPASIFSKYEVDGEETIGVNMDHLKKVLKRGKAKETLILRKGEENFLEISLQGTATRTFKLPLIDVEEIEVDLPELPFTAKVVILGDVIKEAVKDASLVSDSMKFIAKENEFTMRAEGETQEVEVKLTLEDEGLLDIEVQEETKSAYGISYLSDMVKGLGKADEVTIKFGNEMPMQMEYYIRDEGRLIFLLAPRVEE

[9] = target: T6, Primase small subunit P41 (Q9V292), HIS-tagged (Pyrococcus abyssi) (UniProt Q9V292); assay: as above
T6 sequence: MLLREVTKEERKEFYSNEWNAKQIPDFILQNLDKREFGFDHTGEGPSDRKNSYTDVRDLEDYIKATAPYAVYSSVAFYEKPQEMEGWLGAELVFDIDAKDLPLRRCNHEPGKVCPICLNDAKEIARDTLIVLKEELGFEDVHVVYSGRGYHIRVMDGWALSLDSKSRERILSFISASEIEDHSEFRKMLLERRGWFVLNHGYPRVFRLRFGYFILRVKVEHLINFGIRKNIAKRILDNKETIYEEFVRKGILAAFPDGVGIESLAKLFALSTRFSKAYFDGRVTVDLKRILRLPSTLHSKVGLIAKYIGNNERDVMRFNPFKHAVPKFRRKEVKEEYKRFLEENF

With Hef/XPF protein, endogenous the binding [1] was “binds”.
“polymerase subunit of PolD, endogenous (from UniProt Q9V2F4)” was tested, and the binding [2] was “binds”.
For “Pab0961, endogenous (from UniProt Q9UYR4)”, the binding [3] was “no binding”, the binding [4] was “binds” and the binding [5] was “binds”. For the same substance, the binding [6] was “binds” and the binding [7] was “binds”.
In the case of Pab0431, endogenous, the binding [8] is reported as “binds”.
For “RadA, endogenous (from UniProt Q9V233 1-353)”, the binding [9] was “binds”.
With “small subunit of the loading factor RFC, endogenous” the binding [8] was “binds”.
